One substance from PMC8184862 can be followed below.

Sequences of proteins named here, by UniProt entry; tags and fusion partners are left off.
UniProt P47196: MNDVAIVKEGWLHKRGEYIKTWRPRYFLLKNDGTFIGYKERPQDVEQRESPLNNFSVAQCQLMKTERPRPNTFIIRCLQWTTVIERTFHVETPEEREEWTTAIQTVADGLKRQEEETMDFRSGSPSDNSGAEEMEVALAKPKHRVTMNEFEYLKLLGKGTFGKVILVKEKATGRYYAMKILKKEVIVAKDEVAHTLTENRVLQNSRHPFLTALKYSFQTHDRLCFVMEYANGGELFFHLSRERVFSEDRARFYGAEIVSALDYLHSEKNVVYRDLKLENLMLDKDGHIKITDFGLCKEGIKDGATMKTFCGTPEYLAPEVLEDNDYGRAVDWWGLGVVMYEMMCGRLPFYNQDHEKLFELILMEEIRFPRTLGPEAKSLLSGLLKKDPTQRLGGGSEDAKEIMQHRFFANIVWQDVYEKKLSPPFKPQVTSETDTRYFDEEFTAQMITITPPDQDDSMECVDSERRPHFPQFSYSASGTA
UniProt P42930: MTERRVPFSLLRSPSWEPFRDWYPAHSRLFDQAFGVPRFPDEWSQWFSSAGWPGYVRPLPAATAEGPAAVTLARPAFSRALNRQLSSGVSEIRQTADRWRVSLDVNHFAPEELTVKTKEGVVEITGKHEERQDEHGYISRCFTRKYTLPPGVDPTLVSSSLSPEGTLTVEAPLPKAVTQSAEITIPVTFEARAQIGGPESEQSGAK

These are yes or no findings as the source states them, for the method shown. Binding seen in cells or lysates may run through a third protein. A yes stands for co-enrichment or nearness to the bait. Other partners may have been found.

For this experiment, the target named is Akt1 (rat (endogenous in REKs)) (UniProt P47196). Kind of experiment: affinity purification with mass spectrometry; immunoprecipitation with an Akt1-specific antibody from REK lysate (RIPA buffer, Dynabeads Protein G); eight major SDS-PAGE gel bands analysed by LC-MS/MS; IgG1 control.

On to HspB1 (from UniProt P42930 1-206), for which the binding entry is “binds”.
